# Results of single-concentration screens

Data taken from ChEMBL document CHEMBL3988442, “University of Dundee, Small-Polar-MMV Screening Library” (2021).

Mtb glucose medium: 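Whole-cell growth test on Mycobacterium tuberculosis, read after 3 days in glucose-containing 7H9 medium; the read-out is not stated. Tested at 50 µM. The record gives no direction; compounds that gave an IC50 in retests scored well above the rest, so higher reads as more growth inhibition. About 69,000 compounds were tested under these conditions; 1.1% (about 760) showed 50% or more at least once.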
Mtb cholesterol medium: 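Whole-cell growth test on Mycobacterium tuberculosis, read after 4 days in a medium based on cholesterol and the lipid DPPC; the read-out is not stated. Tested at 50 µM. The record gives no direction; compounds that gave an IC50 in retests scored well above the rest, so higher reads as more growth inhibition. About 69,000 compounds were tested under these conditions; 0.54% (about 370) showed 50% or more at least once.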

Each number is a percent effect as filed. The controls that fix the scale are not given in the record; negative values are as filed. Compounds were drawn at random from those tested, without regard to their results. Two or more numbers in one place are separate tests of the same structure; such repeats can differ widely.

| SMILES | Mtb glucose medium | Mtb cholesterol medium |
|---|---|---|
| `Cc1n[nH]c(C)c1C1COCCN1C(=O)Cc1cccc(F)c1` (centres undefined) | 6.864 and -7.549 | 3.793 |
| `O=C(NCc1ccccc1CO)C1COc2ccccc21` (centres undefined) | 0.04502 | -8.705 |
| `Cc1cc(C)nc(CCNC(=O)[C@H]2CNC[C@@H](C(=O)N3CCCC3)C2)n1` | -52.92 | -17.25 |
| `O=C(O)C(F)(F)F.[H][C@@]12CCN(c3ncccn3)[C@]1([H])CC[C@@H](C(=O)NCc1cccs1)O2` | -2.049 | -18.2 |
| `O=C(c1cc(COc2ccc3c(c2)OCO3)[nH]n1)N1CCCO1` | 35.04 | 24.72 and 13.73 |
| `Cc1cnn(CC2CN(c3ncnc4ccccc34)CCO2)c1` (centres undefined) | 13.43 | 5.162 |
| `COc1ccc(S(=O)(=O)NC(=O)c2cscn2)cc1C` | -24.08 and 2.873 | 1.375 |
| `[H][C@@]12C[C@@H](c3nnc(C4CC4)o3)O[C@]1([H])CN(CC1CCC1)C2` | -22.9 | 11.73 |
| `CCn1cnnc1CNC(=O)N(C)C(C)c1cccs1` (centres undefined) | 2.034 | 0.8557 |
| `CC(NC(=O)N(C)Cc1ccncc1)c1nncn1C` (centres undefined) | -7.187 and -5.311 | 3.201 |
| `COCCN(C)CC1CCCN1S(=O)(=O)c1cccc(F)c1F` (centres undefined) | 54.18 and 44.81 | 29.95 |
| `Cc1ocnc1C(=O)N(C)[C@@H]1CC[C@@H](n2ccnc2C)[C@@H]1O` | -6.445 | -0.06949 and -2.845 |
| `CCc1cn[nH]c1C1CCN(c2cc(C)c3ccc(OC)cc3n2)CC1` | 18.96 | 17.46 and -20 |
| `Cc1nc(CN2CCC3(C2)CN(Cc2ccco2)C3)cs1` | -13.92 | 3.304 |
| `COc1ccccc1CCNC(=O)N(C)C(C)CS(C)(=O)=O` (centres undefined) | -42.41 and -4.452 | -20.01 |
| `CC(=O)N1CCN(C(=O)CCn2c(C)nc3ccccc3c2=O)CC1` | 4.677 | 0.5908 |
| `CCC(C)N(Cc1ccncc1)Cc1cccc(Cn2cccn2)c1` (centres undefined) | 20.38 | 25.82 |
| `Cc1nn(C)c(C)c1S(=O)(=O)NCCn1ccc(-c2cccs2)n1` | -12.35 | 10.41 |
| `Nc1cncc(C(=O)N2Cc3ccccc3OC3(CCOCC3)C2)c1` | 24.9 | 13.19 |
| `CS(=O)(=O)c1ccc(OCCNCc2cccc(O)c2)cc1` | 11.77 | -3.501 and -7.6 |
| `NC(=O)C1CCN(C(=O)NCCNc2ccccn2)CC1` | -10.4 | 11.91 |
| `CC(C)c1nc2c(n1C)CCN(CC(=O)Nc1ccc(Cl)cn1)C2` | 18.01 | -14.74 |
| `CN(C)C(=O)CCC1CCCN(Cc2ccc(-c3cccnc3)cc2)C1` (centres undefined) | -13.83 | -5.178 |
| `Cn1ncc2c1C(COCC1CC1)N(Cc1ccoc1)CC2.O=C(O)C(F)(F)F.O=C(O)C(F)(F)F` (centres undefined) | 22.72 | -3.26 |
| `COc1ccc(-c2cc(C3(O)CCOC(C)(C)C3)on2)cc1` (centres undefined) | -15.05 and 3.216 | -0.488 |
| `CCN1CCc2cc(-c3cncn3CC(=O)NC(C)(C)C)ccc21.Cl` | 2.08 | 1.359 |
| `CN(Cc1nccn1CC(F)(F)F)C(=O)c1cccc(N(C)C)c1` | 17.71 | 19.06 |
| `O=C(NCC(O)c1ccsc1)Nc1cccs1` (centres undefined) | -1.518 | -0.7867 |
| `CCn1cnnc1CCNC(=O)c1ccc(Br)cc1F` | -22.06 and -1.402 | 16.93 |
| `CC(CNC(=O)c1ccc(F)cc1Cl)N1CCCC1` (centres undefined) | -0.8835 and 6.702 | -25.41 |
| `[H][C@@]12CS(=O)(=O)C[C@]1([H])N(C(=O)c1cc3ccccc3cn1)CCN2CCC` | 11.74 | 4.975 |
| `COCCNC(=O)N1CCCC(COc2ccccc2)C1` (centres undefined) | 4.365 and 0.7065 | -4.285 |
| `Cc1cnc(CN(C)CC2CCCN2c2cccnn2)cn1` (centres undefined) | -32.56 | -18.71 |
| `Cc1ccc(OCC2CCCN(c3nc(CO)cs3)C2)cc1` (centres undefined) | -8.903 | 10.46 and 13.89 |
| `CC(=O)Nc1cccc(C(C)NCC2CCS(=O)(=O)CC2)c1` (centres undefined) | 13.61 | -6.007 |
| `Cc1ccc(CN2CCCC(c3cnccn3)C2)s1` (centres undefined) | -19.04 | 0.6052 and 9.171 |
| `CSc1cccc(CNC(=O)C2CC(=O)N(C3CC3)C2)c1` (centres undefined) | 11.55 | -0.6505 and 12.25 |
| `CCc1cnc(CN(C(C)=O)C2CCN(CCS(C)(=O)=O)C2)o1` (centres undefined) | -13.71 and -71.43 | -9.776 |
| `CCN(Cc1noc(C(C)C)n1)Cc1ccc(C#N)cc1F` | -24.54 | -1.755 |
| `CC(=O)Nc1ccc2nc(CN(C)Cc3noc(C)n3)ccc2c1` | -11.81 | 0.1492 |
| `Cc1cc(-c2cnc(C)nc2CN(C)C(=O)c2ccccn2)on1` | 18.98 | 3.817 |
| `[H][C@@]12CN(Cc3cc(C)cc(C)c3)C[C@]1([H])OCCN2S(=O)(=O)N(C)C` | 11.03 and 16.21 | 22 |
| `COCCN1Cc2ccccc2C2(CCN(C(=O)c3ccno3)CC2)C1` | -37.04 | -10.94 |

Repeated from the top, 5 entries:

SMILES	Mtb glucose medium	Mtb cholesterol medium
Cc1n[nH]c(C)c1C1COCCN1C(=O)Cc1cccc(F)c1 (centres undefined)	6.864 and -7.549	3.793
O=C(NCc1ccccc1CO)C1COc2ccccc21 (centres undefined)	0.04502	-8.705
Cc1cc(C)nc(CCNC(=O)[C@H]2CNC[C@@H](C(=O)N3CCCC3)C2)n1	-52.92	-17.25
O=C(O)C(F)(F)F.[H][C@@]12CCN(c3ncccn3)[C@]1([H])CC[C@@H](C(=O)NCc1cccs1)O2	-2.049	-18.2
O=C(c1cc(COc2ccc3c(c2)OCO3)[nH]n1)N1CCCO1	35.04	24.72 and 13.73